In paper PMC5216124, “Cell division orientation is coupled to cell–cell adhesion by the E-cadherin/LGN complex” (Nature Communications, 2017):

Target: β-catenin-binding domain of E-cadherin cytosolic tail targeted to mitochondria (mouse)
Assay: mitochondrial co-recruitment assay (live-cell confocal imaging); E-cadherin tail constructs fused to RFP-tagged MLS of ActA held at mitochondria of U2OS cells; recruitment of co-expressed YFP-LGN-TPR or GFP-p120-catenin scored as fluorescence at mitochondria

binding: no binding
B1: YFP-tagged TPR repeats of human LGN (domain or fragment, UniProt P81274 8-351)
chain: MREDHSFHVRYRMEASCLELALEGERLCKSGDCRAGVSFFEAAVQVGTEDLKTLSAIYSQLGNAYFYLHDYAKALEYHHHDLTLARTIGDQLGEAKASGNLGNTLKVLGNFDEAIVCCQRHLDISRELNDKVGEARALYNLGNVYHAKGKSFGCPGPQDVGEFPEEVRDALQAAVDFYEENLSLVTALGDRAAQGRAFGNLGNTHYLLGNFRDAVIAHEQRLLIAKEFGDKAAERRAYSNLGNAYIFLGEFETASEYYKKTLLLARQLKDRAVEAQSCYSLGNTYTLLQDYEKAIDYHLKHLAIAQELNDRIGEGRACWSLGNAYTALGNHDQAMHFAEKHLEI

Results are given in words; binding and its absence hold for the method and conditions named. Tags and fused reporters may be left off the sequences shown.
